This note sets out measurements from PubChem BioAssay AID1508600 (Functional Genomics Laboratory (NCATS/FGL), 2020).

Hit rate of the full screen: of about 53,000 sequences, about 3,700 (7%) were called active.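 Rule for the calls: active = gene knockdowns whose robust z-score for IL-1 alpha signal is at least 2 or at most -2, so actives lie on both sides; inactive = the rest.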 Some of the results follow.

This test in a line: Components of the Cytosolic LPS Sensing Pathway: Gene Identification via Genome-wide siRNA Screen.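 Note: robust z of the log signal after scaling to non-targeting control siRNA wells of the plate.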 The note with it: RAW264.7 macrophages, IL-1a HTRF, actives lie on both sides, screened at 100 nM (by protocol), cells primed 5 h with Pam3CSK4 first. In outline: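 Cells (RAW264.7, 1×10^4 per well) were transfected with siRNA at 100 nM and cultured 48h at 37 degrees C. Pam3CSK4 was added for 5 hours; LipidA transfection followed for 24 hour. IL-1a was then measured by HTRF.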
For orientation: TR-FRET usually uses a lanthanide donor and a delayed reading to cut background.
For the sequence GGCUUCAUUUCCUAUAAUGTT against Tcaf1, the z-score was inactive: -0.601.

Regarding GGAUGGUCGAAACAAUAACTT against Stk32b, the z-score was active: 2.16. In the case of ACCUGAAUUUGGUGACUGATT against Rdh18-ps it was inactive: 0.368. Consider GGAAGAUUAAGCGAGAUAUTT against Rnf146, for which the z-score is inactive: -0.229. Under GAAGGGACUUCAAAGUUGATT against Ndufb10 stands active: 3.3; under GGCAUACACCACUUAGUAATT against Sumo2, inactive: -0.79; under GCAACGAGAACUCUUUUUATT against Spen, inactive: 1.4.

As to GGACAUUUUUGGGAAAGAUTT against Rpap3, the z-score is inactive: -0.0699. Take GGGUUGCUACUCACAAUGUTT against Syngr2: the z-score was inactive: 0.244. In the case of GGAGAUGAAGAAGAUAUUGTT against Smoc2 it was inactive: -0.764; in that of CCCUUUGUUCAAUGUCCCATT against Gpr137c, inactive: -0.707. In the case of GGAUAAUUGAUCAUAGAGGTT against Ufm1 it was inactive: -0.495; in that of GCAGUCUUGGAAAUAACGATT against Spaca1, inactive: 1.3; in that of GGAGCUGAUCGAGAAGAUCTT against Xrcc3, inactive: -1.8.

On to GGAACUUUAUGUGGAAAGATT against Vmn1r235, for which the z-score is inactive: -0.449. In the case of GCCAUCGAUGUACUGAGCUTT against Psme2 it was inactive: 0.525; in that of GGAUGUGGAUGAAUGCAGATT against Masp2, inactive: -0.106. As to CCUCGCUGUAUCUUAACAUTT against Dppa2, the z-score was inactive: -0.742. In the case of GGAAGAGCCAUCGUUUGCCTT against Denn2b it was inactive: -0.36; in that of GGUUUACCAUGCAUAUUAUTT against Txnrd2, inactive: -0.0102; in that of GGACAAUCAACUAAAGCUCTT against Stab2, inactive: 1.14.

As for GGUCAUGGAUGUCACAGAGTT against Mink1, the z-score is active: -2.17. In the case of GCUAAUGGUAUAAAUGGAUTT against Serinc5 it was inactive: 0.925; in that of GCCUGAGAAGAUAGACUGATT against Pigs, inactive: 0.114; in that of CGUGGUUGUACAUAUUUGUTT against Trip10, inactive: 0.39. Under GGUGCUCAAAUCCUCUUGATT against Ctps stands inactive: -0.0545; under GGGUGAUGUCACUGUCAUCTT against Gabrg2, inactive: 0.434; under CCAGGAUCACCAAAAUGGATT against Slit3, inactive: -1.18. In the case of GGUGUUUAAUAAUGUUGUCTT against Olfr976 it was inactive: -0.27; in that of GGAAGGAAGUGGGUUACUUTT against Olfr156, inactive: 0.309. Turning to CCCUUCCAACAAUUAUACUTT against Cltrn, the z-score is inactive: 0.0851. Take CCAUGUGAAAGUAUAAGAATT against Fmo2: the z-score is inactive: 0.416. GGAAUCCUCGGCAGAUAAATT against Rpl24: the z-score was active: 2.31. In the case of GGACACCAUGCCACAGACATT against Hlx it was inactive: -1.43. Under UUAUGCUGACCUCUAUCUUTT against Akr1c19 stands active: 2.33; under GCAACAAGUUCGAAAUGAATT against Etv6, inactive: 1.23; under GGCAUCGUAAAGGACAUCATT against Rpl8, inactive: 1.22. Under CCCUUUAAACCUCUUCAGATT against St7l stands inactive: -0.356. On to CCAGUAAAAAUUGAAGGCUTT against Capza2, for which the z-score is inactive: 0.565. Under GCUGUCUACAGACAUCGAUTT against Ung stands inactive: 0.954; under GCUGCUUUGCUAUCUCCUGTT against Apof, active: -2.25. In the case of GGAUGAGAACAGCAACCAGTT against Bcl7b it was active: -2.22. In the case of GGCGAUAUUCUUAAUUAUCTT against Mfsd6 it was inactive: 0.735; in that of GGACCAUUUCCAUAGAGACTT against Slc10a6, inactive: -0.241; in that of GGAGGUGGAACUGCUGUAUTT against Fam180a, inactive: -0.257. As for GCUACGUGAGAAUUCCGCCTT against Cux1, the z-score was inactive: -0.459. Under GGACAGCCAGGACUUCUCATT against Iah1 stands inactive: -0.399. Under GGACAUUAUUAUGGAUGAUTT against Arl2bp stands inactive: -1.71; under GGAUGUCAGCUGGUGGUUATT against Tmprss6, inactive: -0.607.

Take GGCCAUGAUCAAAACGUAUTT against Leng8: the z-score is inactive: -1.54. Under GGACUCUGUCUGUAAACAGTT against Nup43 stands inactive: -1.01; under GGUGCUAAGUAUUCUUAUCTT against Ppp6r3, inactive: 0.15; under GGUAAACGGAUGGAAUGGGTT against Gspt2, inactive: -0.0532. On to GGUACAUGAUCAAUUUAGATT against Tspyl4, for which the z-score was inactive: 0.726. Under GCUUGCUUAUGGCCUAUUATT against Ucma stands active: -2.05. In the case of GGUAUUGUGGAAAUUCCCATT against Dennd1b it was inactive: -1.54. In the case of GGCCAUCAAACACCAGGUGTT against Plxnb2 it was inactive: -1.38. For GCUGUCAAGGAUCAUCCCATT against Ano1, the z-score was inactive: -0.532. In the case of GGACAUUCAACUGUACCACTT against Selenom it was inactive: 1.34. For the sequence GCUAAGUUGCUUGUCUUUATT against Acox1, the z-score was inactive: 0.233. Under GGUGCAUGACCUGACAAAGTT against Fermt3 stands active: 2.5.

As for GUACCAGAAGUGAGUUCAGTT against Leap2, the z-score is active: -2.97. In the case of GGUGGAAAGGAACAUUGUGTT against Ppl it was inactive: -0.311. As to CCAAUACCCUCAAGAUUCUTT against Itih5, the z-score is inactive: 0.318. Turning to GGUUAUCUCAAAACUCGACTT against Prox2, the z-score was inactive: -0.119.

On to GCGUGUGACCAGAUUCGUCTT against Slc1a2, for which the z-score is inactive: 0.0872. In the case of CGAGUCUCCCUGGACAUUGTT against Rara it was inactive: -1.27; in that of GCUUUUGCACUGGAGAAGUTT against Glra3, inactive: -0.918; in that of CCUCAUGAUCAAAGUGCGGTT against Tmprss6, inactive: -0.226.

Turning to CAUCAAGACAUGACCGUCCTT against AI413582, the z-score was inactive: 1.25. In the case of GGGAAUGACGCAUCUUGAATT against Pdlim5 it was inactive: 1.47.

For the sequence GGUACACCAAGGCUUGCUATT against Coq8b, the z-score was inactive: -0.343.

As to CCUUGCUAGCCGCCACUUUTT against Trmt112, the z-score was inactive: -1.34. In the case of GCUGUCAUAAGUACUAAAUTT against Slc37a2 it was inactive: 1.49; in that of GGAAGACAGAGAAACUCUATT against Clgn, inactive: 2; in that of GACAACUUUUCCCUGUCAUTT against Prm3, inactive: -0.86. Under CGAAGUUUGACACCUAUAUTT against Tinf2 stands inactive: -1.16; under CCCAAGAUCUAAGAGUAUUTT against Rin3, inactive: -1.18.

On to GGUCUGCUUUGUGCUGAUGTT against Olfr983, for which the z-score is inactive: 0.643. Under UGGCUGAUAUGAAGGUCUGTT against Krtap31-2 stands inactive: 0.154; under GCUGGGAUAUUACAUUCUATT against Thap2, inactive: 1.29; under GGAAUAGGAAAUUAGCACATT against Thnsl1, inactive: 1.19. Under GGGUAACAGAUGAAGGGUCTT against Synpo2l stands active: 2.48. As to GGAAAGUCCUUCCUUUUGGTT against Rnf112, the z-score was inactive: -0.751. In the case of GGCCGUGAAACACUUUCGUTT against Lgi3 it was inactive: 0.26. Under GACUUCUCCUGACAGGCUGTT against Olfr61 stands inactive: -1.81; under GGCAGUAACUCAUGUGCCUTT against Natd1, inactive: 0.56; under GGCUGUGACUUGUUAAUCATT against Tafa5, inactive: -0.346. Under GGAAAUCUGAAGAAUCAAGTT against Zup1 stands inactive: -0.621. Consider GCCCGCGUUGCCUAAGUAUTT against Elavl4, for which the z-score was inactive: 1.63. In the case of GGCAUUUACUACUUCAUAGTT against Nfam1 it was inactive: 0.738; in that of CCACUGUGCUCAAUUUGCATT against Slc9a2, inactive: -0.372. Under GGUGACCACACCUUCAAAGTT against L3mbtl4 stands inactive: -0.212; under CCUAUUCAGUCGCUCAGAGTT against Pacs1, inactive: -1.34; under GGAAUAAGUACCUCAUCUUTT against Fbxw5, inactive: -0.867. Turning to GGAGAACUGUAAAUAAACUTT against Duoxa2, the z-score is active: -2.1.

As to GGUACAAAGUACAAGCCGUTT against Sowahd, the z-score is inactive: 1.1. In the case of AAGCGGAACUUCAGUAGCGTT against Zmiz2, the z-score was inactive: 1.35.

Turning to GGCCUUGAUAAUGUUCGACTT against Coq6, the z-score is inactive: 1.25.

Regarding GGCGAAUUGAAGGAGACCATT against Tmod3, the z-score was active: 2.54. Under GGUGAACUGUAAUGGCUUCTT against Smyd2 stands inactive: -0.209. With CCUGCAUUUACUCAACUUGTT against Snrpe, the z-score is inactive: -1.74. Under GGCUACGCUUUUAUUUCCCTT against Jak3 stands inactive: 1.02. On to GCAGUGUUCGAAGAUAUGATT against Ehhadh, for which the z-score was inactive: 0.286.

For GGAUGCACUGAUUUGGUUATT against Ptger2, the z-score is inactive: 0.956. Under GGAUCAAAAAAAAACUGGATT against Sinhcaf stands inactive: 1.19. Under GGGUUUUUAUACUAGUUUGTT against Exosc4 stands inactive: 0.384. With GGCUUGUGUUUCUAUCUUUTT against Cct8, the z-score was inactive: -0.867.
